Results on one substance are retold here after article PMC9795039, “Kindlin2 enables EphB/ephrinB bi-directional signaling to support vascular development” (Life Science Alliance, 2022).

Protein sequences, listed by entry. Tags and fused reporters are not part of them.
UniProt Q7Z5R6: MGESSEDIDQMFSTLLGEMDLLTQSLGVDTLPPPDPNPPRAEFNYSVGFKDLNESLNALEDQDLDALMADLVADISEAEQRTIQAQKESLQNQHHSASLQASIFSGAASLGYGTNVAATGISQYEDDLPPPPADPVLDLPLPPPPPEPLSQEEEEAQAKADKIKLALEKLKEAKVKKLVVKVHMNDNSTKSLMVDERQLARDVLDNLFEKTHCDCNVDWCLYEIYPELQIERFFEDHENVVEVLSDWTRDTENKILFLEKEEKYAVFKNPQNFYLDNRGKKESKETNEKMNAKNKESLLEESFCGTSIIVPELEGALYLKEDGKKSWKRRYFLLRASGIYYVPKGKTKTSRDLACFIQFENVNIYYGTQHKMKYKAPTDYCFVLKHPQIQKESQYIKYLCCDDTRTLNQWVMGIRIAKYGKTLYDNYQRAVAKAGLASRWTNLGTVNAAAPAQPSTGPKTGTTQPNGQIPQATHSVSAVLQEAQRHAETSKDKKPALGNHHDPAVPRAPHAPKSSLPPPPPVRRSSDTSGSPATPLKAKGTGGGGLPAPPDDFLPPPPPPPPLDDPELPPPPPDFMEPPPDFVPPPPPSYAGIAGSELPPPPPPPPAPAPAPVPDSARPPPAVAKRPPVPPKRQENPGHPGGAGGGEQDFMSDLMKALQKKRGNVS
UniProt Q9Y4G6: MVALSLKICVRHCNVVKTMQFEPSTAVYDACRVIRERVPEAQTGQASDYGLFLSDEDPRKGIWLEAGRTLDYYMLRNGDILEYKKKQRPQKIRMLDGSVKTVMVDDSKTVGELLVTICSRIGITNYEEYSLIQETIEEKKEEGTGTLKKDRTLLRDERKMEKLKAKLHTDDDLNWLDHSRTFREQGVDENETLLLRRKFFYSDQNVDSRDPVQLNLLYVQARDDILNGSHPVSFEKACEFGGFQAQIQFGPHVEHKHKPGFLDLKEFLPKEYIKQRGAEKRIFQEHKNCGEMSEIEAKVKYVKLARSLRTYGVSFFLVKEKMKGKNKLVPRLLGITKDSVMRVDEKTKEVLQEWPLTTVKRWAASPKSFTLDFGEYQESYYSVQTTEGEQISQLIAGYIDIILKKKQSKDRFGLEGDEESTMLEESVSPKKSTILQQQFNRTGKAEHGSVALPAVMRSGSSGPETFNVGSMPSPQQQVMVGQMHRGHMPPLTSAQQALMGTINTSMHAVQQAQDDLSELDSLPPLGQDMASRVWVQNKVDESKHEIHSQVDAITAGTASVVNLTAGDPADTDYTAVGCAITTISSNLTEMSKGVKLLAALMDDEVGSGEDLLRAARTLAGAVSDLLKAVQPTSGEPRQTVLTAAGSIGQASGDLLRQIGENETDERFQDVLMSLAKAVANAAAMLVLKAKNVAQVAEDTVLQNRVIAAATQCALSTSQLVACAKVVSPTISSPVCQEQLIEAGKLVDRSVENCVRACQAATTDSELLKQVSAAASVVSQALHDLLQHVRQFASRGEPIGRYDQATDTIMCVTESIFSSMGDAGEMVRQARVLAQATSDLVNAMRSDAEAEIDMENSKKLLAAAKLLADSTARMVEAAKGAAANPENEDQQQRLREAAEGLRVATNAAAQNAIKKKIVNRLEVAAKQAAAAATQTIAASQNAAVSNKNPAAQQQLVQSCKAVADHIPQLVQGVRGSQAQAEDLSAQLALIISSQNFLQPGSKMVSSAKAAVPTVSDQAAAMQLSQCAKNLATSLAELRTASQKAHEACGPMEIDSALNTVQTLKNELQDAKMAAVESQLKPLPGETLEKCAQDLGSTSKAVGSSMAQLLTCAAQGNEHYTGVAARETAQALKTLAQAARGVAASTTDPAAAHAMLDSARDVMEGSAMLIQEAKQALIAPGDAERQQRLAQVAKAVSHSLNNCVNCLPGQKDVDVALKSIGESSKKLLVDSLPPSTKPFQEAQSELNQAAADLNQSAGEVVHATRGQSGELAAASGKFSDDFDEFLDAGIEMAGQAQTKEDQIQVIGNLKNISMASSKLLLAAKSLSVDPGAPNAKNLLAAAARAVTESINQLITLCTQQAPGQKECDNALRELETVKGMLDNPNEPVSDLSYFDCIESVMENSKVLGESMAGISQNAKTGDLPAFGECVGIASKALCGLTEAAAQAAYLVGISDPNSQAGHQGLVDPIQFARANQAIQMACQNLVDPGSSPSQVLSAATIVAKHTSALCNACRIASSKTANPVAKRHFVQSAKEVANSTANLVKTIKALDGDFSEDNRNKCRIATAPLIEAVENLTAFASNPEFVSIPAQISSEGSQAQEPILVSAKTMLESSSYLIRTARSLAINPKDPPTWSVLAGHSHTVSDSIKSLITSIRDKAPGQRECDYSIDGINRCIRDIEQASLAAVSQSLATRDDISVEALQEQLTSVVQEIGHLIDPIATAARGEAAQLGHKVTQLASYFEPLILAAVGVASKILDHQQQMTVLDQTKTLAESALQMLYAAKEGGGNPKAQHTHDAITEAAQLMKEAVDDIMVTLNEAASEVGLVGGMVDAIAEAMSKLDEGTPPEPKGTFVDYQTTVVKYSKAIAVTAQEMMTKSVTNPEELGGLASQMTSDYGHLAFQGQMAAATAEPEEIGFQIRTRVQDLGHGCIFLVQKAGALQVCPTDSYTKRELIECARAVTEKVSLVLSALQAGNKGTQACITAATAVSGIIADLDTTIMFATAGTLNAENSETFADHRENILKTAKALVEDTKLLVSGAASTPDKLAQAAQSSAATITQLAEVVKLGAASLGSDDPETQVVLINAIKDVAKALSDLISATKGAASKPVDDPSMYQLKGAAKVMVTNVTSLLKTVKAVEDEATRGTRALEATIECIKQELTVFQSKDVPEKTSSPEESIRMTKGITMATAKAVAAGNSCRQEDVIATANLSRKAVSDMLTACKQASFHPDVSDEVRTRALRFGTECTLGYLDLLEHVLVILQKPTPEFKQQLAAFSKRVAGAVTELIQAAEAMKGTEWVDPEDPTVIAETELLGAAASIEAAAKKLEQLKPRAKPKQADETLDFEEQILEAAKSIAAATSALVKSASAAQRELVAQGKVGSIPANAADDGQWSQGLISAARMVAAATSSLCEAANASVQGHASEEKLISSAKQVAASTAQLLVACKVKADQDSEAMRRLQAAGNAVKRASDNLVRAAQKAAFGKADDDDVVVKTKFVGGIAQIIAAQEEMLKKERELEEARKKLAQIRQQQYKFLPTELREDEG

These are yes or no findings as the source states them, for the method shown. Binding seen in cells or lysates may run through a third protein. A yes stands for co-enrichment or nearness to the bait. Other partners may have been found.

In the assay the target is BirA*-FLAG-RIAM (UniProt Q7Z5R6). As to the kind of experiment: proximity labelling; BioID: BirA*-FLAG baits in Flp-In T-REx HEK293 cells, tetracycline and biotin for 24 h, mass spectrometry, SAINTexpress, 1% FDR.

Consider talin2 (from UniProt Q9Y4G6 1-2542), for which the binding entry is reported as “binds”.
